This passage reports binding results from PMC6508535.

The target in assay [1] is T1, AtELF4, yeast two-hybrid fusion (Arabidopsis thaliana) (UniProt O04211).
T1 sequence: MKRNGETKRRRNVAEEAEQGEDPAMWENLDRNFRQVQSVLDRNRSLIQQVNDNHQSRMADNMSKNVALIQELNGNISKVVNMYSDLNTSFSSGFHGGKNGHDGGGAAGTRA
Nature of the assay: two-hybrid; DBD fusions in S. cerevisiae Y187 and AD fusions in AH109, mated; diploids replica plated on CSM -Leu -Trp -His with extra adenine and 2 mM 3AT; 4 days at 30°C.

In assay [2] the target is T2, C-terminal half of AtLUX (AtLUX-C, a.a. 144-324), yeast two-hybrid fusion (Arabidopsis thaliana) (UniProt Q9SNB4).
T2 sequence: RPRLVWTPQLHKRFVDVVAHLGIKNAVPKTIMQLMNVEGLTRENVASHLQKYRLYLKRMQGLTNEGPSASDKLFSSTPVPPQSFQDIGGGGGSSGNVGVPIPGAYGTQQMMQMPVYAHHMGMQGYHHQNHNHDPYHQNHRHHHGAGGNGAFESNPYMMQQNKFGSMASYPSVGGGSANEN
Described as above.

Results are given in words; binding and its absence hold for the method and conditions named. Binding calls can cover weak binding; strength is not graded here. Where a sequence is shown, tags or fusion partners need not be part of it.

Take “BdELF3, yeast two-hybrid fusion (Brachypodium distachyon)”: the binding entry in assay [1] and in assay [2] was “binds” throughout.
“SvELF3, yeast two-hybrid fusion (Setaria viridis)”: the binding entry in assay [1] and in assay [2] was “binds” throughout.
